Data published in PMC3084704.
Results are given in words; binding and its absence hold for the method and conditions named. Binding seen in cells or lysates may run through a third protein. Some entries that bind do so weakly or less than the wild type. Sequences can lack the tags named with a protein.

Protein sequences, listed by entry. Tags and fused reporters are not part of them.
UniProt P23284: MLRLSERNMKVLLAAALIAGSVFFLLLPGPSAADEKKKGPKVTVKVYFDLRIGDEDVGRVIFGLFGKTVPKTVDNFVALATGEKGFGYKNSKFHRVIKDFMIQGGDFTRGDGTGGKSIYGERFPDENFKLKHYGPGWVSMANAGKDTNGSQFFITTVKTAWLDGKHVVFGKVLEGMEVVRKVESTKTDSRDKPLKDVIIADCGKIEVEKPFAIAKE

How the values were obtained:
[1] = target: T1, recombinant GST fusion protein of CsA associated helicase-like protein (CAHL), full length (human) (UniProt Q9H6S0); test: pull-down; GST pull-down with GST-CAHL and in vitro translated protein in the presence of CsA (1, 2, 8 and 20 µg/ml); only the target purified
T1 sequence: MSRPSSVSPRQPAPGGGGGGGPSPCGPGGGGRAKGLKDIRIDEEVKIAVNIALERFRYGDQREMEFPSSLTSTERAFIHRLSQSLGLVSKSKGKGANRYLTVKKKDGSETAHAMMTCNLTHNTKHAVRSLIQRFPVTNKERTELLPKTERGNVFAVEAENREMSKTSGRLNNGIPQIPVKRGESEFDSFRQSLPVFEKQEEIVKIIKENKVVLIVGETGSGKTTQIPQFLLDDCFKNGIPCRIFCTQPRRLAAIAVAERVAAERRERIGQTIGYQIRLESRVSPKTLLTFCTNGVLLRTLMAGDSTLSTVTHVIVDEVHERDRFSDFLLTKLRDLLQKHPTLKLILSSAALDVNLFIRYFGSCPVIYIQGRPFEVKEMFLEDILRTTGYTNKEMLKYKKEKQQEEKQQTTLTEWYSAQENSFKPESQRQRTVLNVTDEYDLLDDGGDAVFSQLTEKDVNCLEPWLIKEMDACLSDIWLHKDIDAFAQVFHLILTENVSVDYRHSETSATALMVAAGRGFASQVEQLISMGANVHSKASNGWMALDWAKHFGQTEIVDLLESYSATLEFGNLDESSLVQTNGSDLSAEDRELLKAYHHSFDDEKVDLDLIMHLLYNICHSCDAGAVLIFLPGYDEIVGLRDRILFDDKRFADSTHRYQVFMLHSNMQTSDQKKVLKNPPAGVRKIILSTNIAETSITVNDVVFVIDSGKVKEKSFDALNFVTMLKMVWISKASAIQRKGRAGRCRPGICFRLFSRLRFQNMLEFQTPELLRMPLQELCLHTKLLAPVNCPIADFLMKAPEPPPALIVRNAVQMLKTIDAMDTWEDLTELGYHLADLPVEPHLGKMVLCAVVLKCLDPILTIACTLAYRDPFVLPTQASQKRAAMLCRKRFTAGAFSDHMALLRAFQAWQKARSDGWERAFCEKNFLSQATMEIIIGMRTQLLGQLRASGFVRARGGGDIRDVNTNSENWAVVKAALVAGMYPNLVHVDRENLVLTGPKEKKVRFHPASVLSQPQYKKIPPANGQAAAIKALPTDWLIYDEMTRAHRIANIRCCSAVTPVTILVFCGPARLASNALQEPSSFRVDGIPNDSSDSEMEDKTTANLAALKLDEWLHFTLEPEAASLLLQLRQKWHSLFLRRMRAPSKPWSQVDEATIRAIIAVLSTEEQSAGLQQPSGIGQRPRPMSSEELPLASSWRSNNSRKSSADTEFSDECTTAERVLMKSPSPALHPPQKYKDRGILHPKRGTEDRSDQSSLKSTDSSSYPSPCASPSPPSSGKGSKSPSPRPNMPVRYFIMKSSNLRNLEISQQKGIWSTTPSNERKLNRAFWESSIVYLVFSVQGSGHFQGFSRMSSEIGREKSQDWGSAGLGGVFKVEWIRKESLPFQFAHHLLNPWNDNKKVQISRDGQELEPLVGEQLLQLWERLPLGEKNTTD

[2] = target: T1, recombinant GST fusion protein of CsA associated helicase-like protein (CAHL), full length (human); test: pull-down; GST pull-down: recombinant GST-CAHL incubated with [35S]-labelled in vitro translation products; GST as negative control; no CsA; only the target purified

- binding [2]: binds
Substance: cyclophilin B, in vitro translated (from UniProt P23284 1-216)
- binding [1]: no binding (condition: with CsA (1, 2, 8 and 20 µg/ml))
